The list shows a part of the results. The data scatter; read single values as rough.

For the first experiment, the system named is T1, ZNF784 C301.
T1 sequence (whole entry): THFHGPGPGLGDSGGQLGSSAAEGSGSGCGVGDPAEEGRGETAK
The experiment is described as follows: log2 mean competition ratio of IA-DTB cysteine labelling (DMSO/compound) (log2 ratio); higher = stronger cysteine engagement by compound. Conditions: 50 µM; treatment time: 4 h; cell line lysate: HEK293T. The protocol:
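IA-DTB competitive cysteine chemoproteomics in HEK293T RIPA lysate. Lysates were treated with compound 29 or 30 at 50 or 200 µM for 4 h, then IA-DTB (500 µM, 1 h), trypsin-digested, NeutrAvidin-enriched and analysed by diaPASEF. Competition ratio = intensity DMSO / intensity compound (n=4 treated, n=64 DMSO); binding: mean log2 CR ≥ 1 and p ≤ 0.05 plus QC filters. Target is the cysteine site.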
`O=C(CCl)N[C@@H]1CCCc2ccccc21`: the “log2 mean competition ratio” value is -0.139.

As to `O=C(CCl)N[C@H]1CCCc2ccccc21`, the “log2 mean competition ratio” value is -0.165.

Still in this experiment, the particulars now being: 200 µM; treatment time: 4 h; cell line lysate: HEK293T.
As to `O=C(CCl)N[C@@H]1CCCc2ccccc21`, the “log2 mean competition ratio” value was -0.511.

Regarding `O=C(CCl)N[C@H]1CCCc2ccccc21`, the “log2 mean competition ratio” value was -0.671.

The values are drawn from the supplement of paper PMC11732987, “Enantioselective OTUD7B fragment discovery through chemoproteomics screening and high-throughput optimisation” (Communications Chemistry, 2025).
